## Library screen at single concentrations

Amino acid sequences for entries named in this document (tags omitted).
UniProt P9WNZ1, whole entry: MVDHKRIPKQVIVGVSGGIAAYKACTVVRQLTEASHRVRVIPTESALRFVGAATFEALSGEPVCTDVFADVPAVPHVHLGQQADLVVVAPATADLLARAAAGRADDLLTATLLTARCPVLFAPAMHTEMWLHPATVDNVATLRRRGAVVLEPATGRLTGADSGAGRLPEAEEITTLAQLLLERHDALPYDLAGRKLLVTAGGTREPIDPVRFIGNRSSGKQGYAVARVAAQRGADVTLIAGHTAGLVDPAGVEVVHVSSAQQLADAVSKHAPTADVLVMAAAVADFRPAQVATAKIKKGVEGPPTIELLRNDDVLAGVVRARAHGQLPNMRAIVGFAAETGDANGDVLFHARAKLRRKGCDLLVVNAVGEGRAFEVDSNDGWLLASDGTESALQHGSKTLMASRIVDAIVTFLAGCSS

Source: ChEMBL document CHEMBL3988442, “University of Dundee, Small-Polar-MMV Screening Library” (2021).

Leishmania in macrophages: 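Cell assay of Leishmania donovani living inside macrophages; the read-out is not stated. Tested at 30 µM. Direction is inferred from retests: higher values go with stronger inhibition. Of about 69,000 compounds tested this way, about 1,000 (1.5%) reached 50% or more in at least one test.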
CoaBC: 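Coenzyme A biosynthesis protein CoaBC, Mycobacterium tuberculosis (UniProt P9WNZ1). Enzyme assay of CoaBC with a phosphate dye (Biomol Green) read at 650 nm. Concentration: 30 µM. Direction is inferred from only a few compounds that gave an IC50; most scored high, so higher reads as stronger inhibition. Most strong results did not repeat in a second test. Of about 67,000 compounds tested this way, about 40 (0.06%) reached 50% or more in at least one test.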

The filed quantity is “Percent Effect” (%). The controls that fix the scale are not given in the record; negative values are as filed. Compounds were drawn at random from those tested, without regard to their results. Two or more numbers in one place are separate tests of the same structure; such repeats can differ widely. A dash means the value is not listed here; it may have been measured.

SMILES,Leishmania in macrophages,CoaBC
CC(C)c1nccn1C(C)C(=O)N1CCN(S(C)(=O)=O)CC1 (stereo unspecified),-18.73%,11.1%
O=C(c1cc2c(s1)CCN2C(=O)C1CC1)N1CCCC1,10.91%,7.536%
Cc1cc(CNC2CCCN(c3cccnn3)C2)no1 (stereo unspecified),24.49%,-10%
Cc1cc(CN2C[C@H]3CCC[C@@]3(COCc3csc(C)n3)C2)no1,-,4.277%
Cc1nnc2n1CCN(CC(=O)Nc1cc(C(C)C)no1)C2,17.96%,1.944%
O=S(=O)(NCC(c1ccsc1)N1CCCCCC1)c1cccs1 (stereo unspecified),41.32%,1.324%
Cc1cccc(NC(=O)CNC(=O)Cn2ncc(Cl)c(Cl)c2=O)c1C,7.663%,2.692%
Cc1cnn(C2CN(CC(=O)NCc3ccccn3)C2)c1,-2.7%,38.1% and 30.22%
Cc1oc(-c2cccc(F)c2F)nc1CN(C)CCO,5.385%,3.027%
[H][C@@]12CCN(C(=O)c3cccs3)C[C@@]1([H])O[C@H](c1nnc(C3CC3)o1)C2,23.86%,-
Oc1ccc(C2Nc3ccccc3C3=NCCCN32)cc1 (stereo unspecified),-7.3%,-5.315%
Cc1cccc2c(CCNC(=O)NCCC[S+](C)[O-])c[nH]c12 (stereo unspecified),13.53%,5.556%
[H][C@]12CC[C@]([H])(CN(Cc3cscn3)C1)N(C(=O)c1cc(C(C)C)on1)C2,-0.9702%,-
O=C(C1=CCCC1)N1CC[C@]2(C[C@H](OCc3cccnc3)CO2)C1,-,5.484%
Cc1cc(C(F)(F)F)nc(CNC(=O)CCn2cccn2)n1,-21.26%,5.178%
COCCNC(=O)CSc1nnc(OC(C)C)s1,-43.45%,2.686%
COc1ncc(-c2ccc(O)cc2)c(OC)n1,14.75%,8.395%
Cn1c(CN2CCN(CC3CCCO3)CC2)nc2ccccc21 (stereo unspecified),20.07%,-1.951%
CCOc1ncccc1CNc1nnc(C)c(C)c1C#N,27.82%,7.597%
O=C(O)C(F)(F)F.[H][C@@]12CCN(c3ncccn3)C[C@]1([H])[C@H](C(=O)NCC1CC1)CCO2,12.35%,-
COC(=O)c1cc(C2CC2)nc2c(C#N)cnn12,-4.313%,8.645%
O=C1[C@H]2CN(Cc3ccoc3)C[C@@H]2CCN1Cc1cccnc1,-,4.061%
CC(C)(C)c1ccc(C(=O)C2CCCN(C(=O)CNS(C)(=O)=O)C2)cc1 (stereo unspecified),1.067%,2.138%
CCn1cc(CN2CCCN(C(=O)Cc3ccc(C)nc3)CC2)cn1,31.64%,6.154%
COCC(=O)NCC1Cn2nnc(-c3ccncc3)c2CO1 (stereo unspecified),-,-10.04%
CC(O)CN1CCN(Cc2cccc(C#N)c2)CC1 (stereo unspecified),-39.98%,2.273%
CCN(CC(=O)NC(C)C)C(=O)C(C)(C)c1ccc2c(c1)OCCO2,10.06%,-
Cc1cncnc1C1CCN(C(=O)CN(C)C)CC1,18.64%,5.701%
CCn1cc(CN(C)S(=O)(=O)c2ccc(Cl)cc2)cn1,2.361%,-2.826%
O=C(CCc1cc(Cl)no1)N1CCC(c2cc3ncccc3cn2)CC1,17.56% and 10.1%,2.19%
COCc1cn(CC2CCN(Cc3c(C)[nH]c4ccccc34)CC2)nn1,5.15%,-1.728%
CC(=O)N1CC[C@H]2OCC[C@@]2(C(=O)NCc2ccco2)C1,-,2.411%
Cc1nc2n(n1)CC(NCc1nc(-c3cccnc3)no1)CC2 (stereo unspecified),12.74%,8.423%
Cn1cc(C2CCCN2C(=O)CCn2ccc3ccccc32)cn1 (stereo unspecified),7.418%,-7.495%
CNC(=O)NC(=O)CNc1cc(C(=O)OC)cc(C(F)(F)F)c1,-1.49%,17.73%
[H][C@@]12C[C@H](C)O[C@]1([H])CCN(S(=O)(=O)c1ccc(F)cc1)C2,18.83%,-
O=C(Cc1cccc(F)c1)NCCNCc1ccco1,2.837%,-4.096%
Cc1cccc(CN2C(=O)CC[C@@H]3[C@H]2CCN3Cc2ccc(C)s2)n1,-,-0.7772%
O=C1CC(c2ccccc2)C2(CCN(C(=O)c3cnccn3)CC2)N1 (stereo unspecified),25.98%,3.299%
Cn1ccnc1C(O)(CCNCc1ccc(Cl)o1)C(F)(F)F (stereo unspecified),9.853%,5.366%
CC1COCCN1Cc1noc(C(C)(C)C)n1 (stereo unspecified),4.006%,2.427%
COc1ccc(C(C)Nc2ncc(C(N)=O)cc2Cl)c(OC)c1 (stereo unspecified),23.87%,9.153%
COCc1ncc(CN2CCC(Oc3ccccc3C)CC2)cn1,2.938%,1.788%
COc1cc(NC(=O)c2cccc(N(C)C)c2)cc(OC)c1,28.34%,-0.9569%
O=C1OCCN1CCOc1nc(-c2ccccc2Cl)no1,4.618%,10.45%
CC(C)COC1CC2(CCN(Cc3nccn3C)CC2)C1.O=C(O)C(F)(F)F,12.48%,-
CC(Cn1cccn1)NC(=O)NCc1ccc(S(N)(=O)=O)cc1 (stereo unspecified),27.34%,-3.077%
O=C(O)C(F)(F)F.O=C(c1cnccn1)N1CCOCC2(CCN(C3CCOCC3)C2)C1 (stereo unspecified),20.63%,-
CN(Cc1ncc(-c2ccccc2)o1)CC1CCCN1c1cccnn1 (stereo unspecified),46.74%,11.03%
O=C(c1ccc(F)c(F)c1)N1CCCCC1c1nc[nH]n1 (stereo unspecified),-8.926%,-0.7335%
O=C(NS(=O)(=O)c1cccc(F)c1)c1ccccc1F,2.134%,5.217%
Cc1noc(CNC2CCCN(Cc3noc(C4CC4)n3)C2)n1 (stereo unspecified),6.737%,6.888%
COCCN1CCN(Cc2ccco2)Cc2ccc(C)nc21,-,4.017%
Cc1nc(Nc2ccccn2)cc(C2CCCN2C2CCOCC2)n1 (stereo unspecified),6.067%,9.542%
CCOc1ccccc1C(=O)NCc1nncn1C1CC1,-4.382%,8.535%
COCCN(C)C[C@@H]1CCC[C@@H]2CN(c3ncccn3)C[C@@H]21,-,5.089%
[H][C@@]12CCC(=O)N(CCCOC)[C@]1([H])CCN(c1cc(C(N)=O)ccn1)C2,9.224%,-
Cl.OC1CCN(Cc2c(C3CCCNC3)[nH]c3ncccc23)CC1 (stereo unspecified),-0.01792%,-
[H][C@@]12CNC[C@]1([H])[C@H]2C(=O)N1CCC(Sc2ccccc2C)CC1,68.53%,-
O=C(O)C(F)(F)F.O=C(O)C(F)(F)F.[H][C@@]12CCN(c3ncc(F)cn3)C[C@]1([H])O[C@H](C(=O)NCc1cccnc1)C2,-17.41%,-
O=C(NC1CCCC1)c1ccnc(C2CCNCC2)c1,-,-7.534%
CC(C)C(=O)N1CCCC([C@@H]2C[C@H](C(F)F)n3ncnc3N2)C1 (stereo partly specified),8.382%,-2.153%
FC(F)(F)Cc1noc(CN2CCCC2c2noc(C3CC3)n2)n1 (stereo unspecified),18.95%,4.864%
Cc1cnn(CCNCc2ccc(S(C)(=O)=O)cc2)c1,-1.29%,0.4464%
O=C(O)C(F)(F)F.[H][C@@]12CCC(CNC(=O)c3ccco3)[C@@]1([H])OCCN2Cc1cccs1 (stereo partly specified),-0.4282%,-
Cc1ccoc1C(=O)NCCOc1ncc(Cl)cc1Cl,36.02%,-0.7335%
O=C(c1cccnc1)N1CCC2(CC1)CNc1c(F)cccc12,-,2.195%
COCCN(Cc1ccccc1)C(=O)c1cnn(C)c1C,-3.733%,1.789%
O=S1(=O)[C@@H](c2ccccc2)[C@H](CO)CN1C1CC1,7.246%,0.1227%
O=C(NCCNc1ccccn1)N1CCSCC1,-3.311%,2.254%
Cn1nc(C#N)c2c1CN(C(=O)c1ccco1)CCC2,-16.23%,-3.704%
O=C(CCOCc1ccccc1)N1CCCC1c1noc(C2CC2)n1 (stereo unspecified),26.11%,3.203%

Once more, the final 8:

- O=C(O)C(F)(F)F.[H][C@@]12CCC(CNC(=O)c3ccco3)[C@@]1([H])OCCN2Cc1cccs1 (stereo partly specified) | Leishmania in macrophages: -0.4282%
- Cc1ccoc1C(=O)NCCOc1ncc(Cl)cc1Cl | Leishmania in macrophages: 36.02%; CoaBC: -0.7335%
- O=C(c1cccnc1)N1CCC2(CC1)CNc1c(F)cccc12 | CoaBC: 2.195%
- COCCN(Cc1ccccc1)C(=O)c1cnn(C)c1C | Leishmania in macrophages: -3.733%; CoaBC: 1.789%
- O=S1(=O)[C@@H](c2ccccc2)[C@H](CO)CN1C1CC1 | Leishmania in macrophages: 7.246%; CoaBC: 0.1227%
- O=C(NCCNc1ccccn1)N1CCSCC1 | Leishmania in macrophages: -3.311%; CoaBC: 2.254%
- Cn1nc(C#N)c2c1CN(C(=O)c1ccco1)CCC2 | Leishmania in macrophages: -16.23%; CoaBC: -3.704%
- O=C(CCOCc1ccccc1)N1CCCC1c1noc(C2CC2)n1 (stereo unspecified) | Leishmania in macrophages: 26.11%; CoaBC: 3.203%